Most values lie at the floor of the assay. Slopes are relative: functional sequences can read slightly below zero.
Each substance was assayed on Saccharomyces cerevisiae PS128 hsf1 delta, HSF1(1-493) fusion (assay: growth estimate (transactivation domain function in HSF1 fusion, heat-shock survival) (a.u. (slope of normalised read count over time)); higher = stronger growth at 37°C, i.e. more transactivation activity). Details: library: random library.
For GVENR, the growth estimate was under -0.25. WLSNADTF gave a growth estimate of under -0.25. YTKSPGGSSLWGTRSRRTWP gave a growth estimate of under -0.25. For SVRPTSKRCLSCRPCFVD, the growth estimate was under -0.25. With LCQ the growth estimate was under -0.25. Work on VGYKIYVMMRSDWW yielded a growth estimate of under -0.25. DKVFHHLWPE showed a growth estimate of under -0.25. APLSVYVVVCYAAGRDTQHS showed a growth estimate of under -0.25. Substance CVIAPNGETL has a growth estimate of under -0.25. In the case of SRCDLVENGLQVASVTTSCC, the growth estimate is reported as under -0.25. Substance HSRRRERQLTGHGSCVPGRG has a growth estimate of under -0.25. HRFSQLAVMVVRNTGYGQLR showed a growth estimate of under -0.25. In the case of ARERGNRLYIQHISSCLVPA, the growth estimate is reported as under -0.25. SIW gave a growth estimate of under -0.25. FTVSLTVLEGCVPVRLLIKP showed a growth estimate of under -0.25. For PHVVRTDGSGSDLHTFPAS, the growth estimate was under -0.25. RSSHAGWNYGLNRPGKMGAL gave a growth estimate of under -0.25. For SLFD, the growth estimate was under -0.25. Work on GQESSADVHAVDGAANSTHP yielded a growth estimate of under -0.25. ICT was tested, and the growth estimate was under -0.25. SGSEDFVG was tested, and the growth estimate was under -0.25. SVMQLHRAGLPLRNTNGSRW showed a growth estimate of under -0.25. YGVTWC was tested, and the growth estimate was under -0.25. For IDPSGLDTRHPAQSEDAPSL, the growth estimate was under -0.25. LLYEGSAAIV gave a growth estimate of under -0.25. ILTLGGMTGVLTFNYA showed a growth estimate of under -0.25. In the case of DIAWV, the growth estimate is reported as -0.0052. For TWRSVSLHSVMARGLPAPVY, the growth estimate was under -0.25. With GRRSYRRCEHSPAIRWAHAI the growth estimate was under -0.25. Substance PEGV has a growth estimate of under -0.25. Substance VLSGEDVVHRASKRLDADSR has a growth estimate of under -0.25. Substance PALAGPRWVTARASGTSR has a growth estimate of under -0.25. Work on SRRRISLPRPNG yielded a growth estimate of under -0.25. Work on FSTCLRDNDFRGSFV yielded a growth estimate of under -0.25. With RFMGESFI the growth estimate was under -0.25. In the case of RTSFGSRGRTGGR, the growth estimate is reported as under -0.25. VGRFFLNWTSVSAESWIQT was tested, and the growth estimate was under -0.25. In the case of RAIS, the growth estimate is reported as under -0.25. With QLRRCICLPSRRRR the growth estimate was under -0.25. In the case of DQYSGWSACSKDRLSAGFLV, the growth estimate is reported as under -0.25. RITT showed a growth estimate of under -0.25. Substance AWLIKVAYSVCKTSLLPGRA has a growth estimate of under -0.25. In the case of YRVGALVATRQDTPPNRLPR, the growth estimate is reported as under -0.25. Substance AEHVGN has a growth estimate of under -0.25. VGQIGESSEQIRIGNVWVAV showed a growth estimate of under -0.25. In the case of ASQLTITYGNRDVLFTQAHY, the growth estimate is reported as under -0.25. YLTVGHRCNTASEESDRNGA showed a growth estimate of under -0.25. With GRCGDSTIRYLIPPAGTLTP the growth estimate was under -0.25. KPLLNLIYCRCAQSDQLV gave a growth estimate of under -0.25. VDTVRTYICSMP showed a growth estimate of under -0.25. Work on CSHPVSVNEYPGPRVNVGAP yielded a growth estimate of under -0.25. GHS showed a growth estimate of under -0.25. QARFRGPIVHSSVLVRPRSN showed a growth estimate of under -0.25. In the case of KPVSLTRKLLSKNSSGCCAR, the growth estimate is reported as under -0.25. RFTDEVPCYGHCG showed a growth estimate of under -0.25. With VWSQGRGISNS the growth estimate was under -0.25. ISRPTGQLTPSRSQRIASCN was tested, and the growth estimate was under -0.25. For RGVIYGVKRSGVFKFLNP, the growth estimate was under -0.25. For RAQGIAGAVRECARF, the growth estimate was under -0.25. PNGV gave a growth estimate of under -0.25. For ALELFCRLGTERFKRP, the growth estimate was under -0.25. For RQGSKVMPSAVWAPTRCGTE, the growth estimate was under -0.25. In the case of HHCNWHPVAITP, the growth estimate is reported as under -0.25. Substance VPIPEVCDPDLHKVHAAPCF has a growth estimate of under -0.25. CLASRSRRYVCQAHLRSLGG showed a growth estimate of under -0.25. LFFRGLRIGSGPEPRASSP showed a growth estimate of -0.231. Substance RAWVLDGLRIRTAWQLGEAS has a growth estimate of under -0.25. For GPRTCPVSRAIIRTGRNGFM, the growth estimate was under -0.25. In the case of LRNLCCGCSTSVSGGSWRKA, the growth estimate is reported as -0.245. Substance SDIPELMHDRSYPRMGPSLG has a growth estimate of under -0.25. With GVETHLR the growth estimate was under -0.25. For PFTNSSRERFV, the growth estimate was -0.167. In the case of LTPEQLRLGAGLRYAAFIVD, the growth estimate is reported as under -0.25. With RNGEKEVHGPKGRAFLVTGP the growth estimate was under -0.25. EPSISNRLSKFRRPRS showed a growth estimate of under -0.25. With FVIQLLGSFRALINWYFLGR the growth estimate was under -0.25. With GIDLKTKQEPACSCIVGAG the growth estimate was under -0.25. Work on NRFKVFYSRTG yielded a growth estimate of under -0.25. With ECYVTHKAPPQGGK the growth estimate was under -0.25. GSNWR showed a growth estimate of under -0.25. PRIPFRIRS showed a growth estimate of under -0.25. Substance VRPAIILRFRNLQHFSSTAG has a growth estimate of under -0.25. For GRRHEPFMVRTLWASVLA, the growth estimate was under -0.25. Work on HWRVVWEGNAGGAPH yielded a growth estimate of under -0.25. Substance SMFPGRCCTSFDDNSPQHRH has a growth estimate of under -0.25. Work on SVWARNAWRRAGVFTRALDR yielded a growth estimate of under -0.25. With RVN the growth estimate was under -0.25. In the case of DTSRSSAALIPAPARVTHYA, the growth estimate is reported as under -0.25. For TVVVLHSLRELERGALVAAA, the growth estimate was under -0.25. GGVWGSDLLA gave a growth estimate of under -0.25. With PENAITVTVVVFCLLTGGPP the growth estimate was under -0.25. TLSRRCPVIL gave a growth estimate of under -0.25. Substance LGQIIWYGCSHRARIFSRQR has a growth estimate of under -0.25. FSPLPLDMPLCGTSETSQLG gave a growth estimate of under -0.25. In the case of VDGIYKVW, the growth estimate is reported as under -0.25. LGRALQRNVMRQVSEDTDYR showed a growth estimate of -0.245. With QGIRHVRRISGRVVAVTDRG the growth estimate was under -0.25. RSEVCAASRRETRVLATWPI was tested, and the growth estimate was under -0.25. In the case of EVSTQDQ, the growth estimate is reported as under -0.25. RCNSLLKGLCPSQRTGRLSL gave a growth estimate of under -0.25. For VLLQAWS, the growth estimate was under -0.25. With PSN the growth estimate was under -0.25. Substance GSPMLSQLTSVANR has a growth estimate of under -0.25. For LAC, the growth estimate was under -0.25. TFCVHHTGDNGIRREGCG was tested, and the growth estimate was under -0.25. With AYG the growth estimate was under -0.25. In the case of AICP, the growth estimate is reported as under -0.25. Work on QRTERMVLLWLDF yielded a growth estimate of under -0.25. In the case of LGTETRTLERMVVAC, the growth estimate is reported as under -0.25. GWEPLPHTRG was tested, and the growth estimate was under -0.25. With TADGLQHKTLQKQILG the growth estimate was under -0.25. With PGAGVSLNTHGTRDMYICAV the growth estimate was under -0.25. AISYEVVWTKGPRHHWRAFR showed a growth estimate of under -0.25. RCEEP was tested, and the growth estimate was under -0.25. GGAWIPGDFRKVWCRPNSRF gave a growth estimate of -0.248. VGNCLLHKVTSTMPNQTRDH showed a growth estimate of under -0.25. GMSTKKPRVYEAYLDRGVPA gave a growth estimate of under -0.25. Substance KVNVLSFVKGSPGTAGFILC has a growth estimate of under -0.25. Work on SQS yielded a growth estimate of under -0.25. PSAFELG was tested, and the growth estimate was under -0.25. For SLQLSC, the growth estimate was under -0.25. With GRGA the growth estimate was under -0.25. Work on EENHRYDP yielded a growth estimate of under -0.25. Substance LCNHICPDVGDGSTTLILRR has a growth estimate of under -0.25. RSVKGRVVIPGDVWLYDDVS showed a growth estimate of under -0.25. For WFS, the growth estimate was under -0.25. Work on VGRPY yielded a growth estimate of under -0.25. Substance YRSCLQQILPSSYLSARTTV has a growth estimate of under -0.25. With HSTCCAEGK the growth estimate was under -0.25. SPHRPSIHLRSKKLVYGTGD showed a growth estimate of under -0.25. QVSNGVHFFCSGVPCEYQPE showed a growth estimate of under -0.25. APVLTWGVSERYHGLRCAHI showed a growth estimate of under -0.25. For FELVRLVCLAPQGPLTLTNA, the growth estimate was under -0.25. Substance TCITGPVGGSQRHRLNG has a growth estimate of under -0.25. RFLARRHYTSIALGSLVPRP was tested, and the growth estimate was under -0.25. In the case of GREGV, the growth estimate is reported as under -0.25. DLFRDQRSCSRCVVRCFSRR showed a growth estimate of under -0.25. For EKVNIGCLV, the growth estimate was under -0.25. Work on WIHSSTRHWRSVNAGADTAH yielded a growth estimate of under -0.25. GEPGH gave a growth estimate of under -0.25. In the case of SLKCN, the growth estimate is reported as -0.197. Substance TGE has a growth estimate of under -0.25. Substance TTVDHGIQMKQRGRSSTFAR has a growth estimate of under -0.25. For PIPDQNSVWCWGPLKSNSRS, the growth estimate was under -0.25. DGSSYGD showed a growth estimate of under -0.25. RFLHLLVDLEVDYWKRTFDN gave a growth estimate of under -0.25. For VPPLRQLLKPCREMLVRISR, the growth estimate was -0.227. GNIGMTWMVLGMPICHKLPL showed a growth estimate of under -0.25. With SSGSESGTTHRLY the growth estimate was -0.25. Work on SMVRKNILNCRWDYGLLTSG yielded a growth estimate of under -0.25. GRSRRVRNKFE was tested, and the growth estimate was under -0.25. TNPLV gave a growth estimate of under -0.25. PVSHESLGSGCHGWDSNAPP showed a growth estimate of under -0.25. In the case of TLYAQE, the growth estimate is reported as under -0.25. Work on GRCVPRFVKLIA yielded a growth estimate of under -0.25. VTRQPCGGWLGPVRRNKLCE was tested, and the growth estimate was under -0.25. SGECDENCEAH was tested, and the growth estimate was under -0.25. In the case of IRRGAGKNPRDVGLQC, the growth estimate is reported as under -0.25. LLLIESDRAKASEGRAAPPA gave a growth estimate of under -0.25.

Source: the supplement of paper PMC5949888
